Measurements reported in paper PMC4764573.

Chains of the proteins cited; added tags and fusions are not shown.
UniProt Q6P5F9: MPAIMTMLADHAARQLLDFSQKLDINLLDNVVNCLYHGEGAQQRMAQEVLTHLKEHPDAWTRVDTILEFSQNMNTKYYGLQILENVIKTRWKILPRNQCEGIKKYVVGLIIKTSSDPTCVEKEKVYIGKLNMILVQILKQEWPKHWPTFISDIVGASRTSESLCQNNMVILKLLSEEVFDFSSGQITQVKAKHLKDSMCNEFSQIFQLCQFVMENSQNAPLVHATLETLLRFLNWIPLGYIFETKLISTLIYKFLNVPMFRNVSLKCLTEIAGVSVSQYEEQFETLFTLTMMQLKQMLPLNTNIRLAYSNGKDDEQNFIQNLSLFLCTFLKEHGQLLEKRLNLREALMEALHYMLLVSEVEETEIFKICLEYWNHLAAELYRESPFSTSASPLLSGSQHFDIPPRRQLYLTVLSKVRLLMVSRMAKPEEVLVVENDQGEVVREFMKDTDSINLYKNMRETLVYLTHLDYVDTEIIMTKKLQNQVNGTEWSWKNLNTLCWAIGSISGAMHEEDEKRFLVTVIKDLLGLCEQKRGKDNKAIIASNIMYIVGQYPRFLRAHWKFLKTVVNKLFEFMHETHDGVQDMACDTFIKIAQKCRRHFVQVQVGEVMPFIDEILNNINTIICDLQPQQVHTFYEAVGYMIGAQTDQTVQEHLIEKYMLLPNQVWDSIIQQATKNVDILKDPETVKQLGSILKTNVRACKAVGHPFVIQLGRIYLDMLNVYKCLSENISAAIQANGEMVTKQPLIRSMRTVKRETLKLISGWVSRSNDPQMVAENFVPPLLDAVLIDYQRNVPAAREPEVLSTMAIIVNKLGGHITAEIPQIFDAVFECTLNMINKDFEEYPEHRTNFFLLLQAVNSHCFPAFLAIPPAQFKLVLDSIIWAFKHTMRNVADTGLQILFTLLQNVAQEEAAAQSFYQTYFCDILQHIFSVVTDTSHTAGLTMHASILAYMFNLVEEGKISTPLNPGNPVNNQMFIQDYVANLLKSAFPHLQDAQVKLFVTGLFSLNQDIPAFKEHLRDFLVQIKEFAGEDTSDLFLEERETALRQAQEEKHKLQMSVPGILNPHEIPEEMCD

B1: human PEX19 (HeLa extract) (protein, UniProt P40855 1-299)
chain: MAAAEEGCSVGAEADRELEELLESALDDFDKAKPSPAPPSTTTAPDASGPQKRSPGDTAKDALFASQEKFFQELFDSELASQATAEFEKAMKELAEEEPHLVEQFQKLSEAAGRVGSDMTSQQEFTSCLKETLSGLAKNATDLQNSSMSEEELTKAMEGLGMDEGDGEGNILPIMQSIMQNLLSKDVLYPSLKEITEKYPEWLQSHRESLPPEQFEKYQEQHSVMCKICEQFEAETPTDSETTQKARFEMVLDLMQQLQDLGHPPKELAGEMPPGLNFDLDALNLSGPPGASGEQCLIM
B2: CDC37L (HeLa extract) (protein, UniProt Q7L3B6 1-337)
chain: MEQPWPPPGPWSLPRAEGEAEEESDFDVFPSSPRCPQLPGGGAQMYSHGIELACQKQKEFVKSSVACKWNLAEAQQKLGSLALHNSESLDQEHAKAQTAVSELRQREEEWRQKEEALVQREKMCLWSTDAISKDVFNKSFINQDKRKDTEDEDKSESFMQKYEQKIRHFGMLSRWDDSQRFLSDHPYLVCEETAKYLILWCFHLEAEKKGALMEQIAHQAVVMQFIMEMAKNCNVDPRGCFRLFFQKAKAEEEGYFEAFKNELEAFKSRVRLYSQSQSFQPMTVQNHVPHSGVGSIGLLESLPQNPDYLQYSISTALCSLNSVVHKEDDEPKMMDTV
B3: human Cys tRNA ligase (HeLa extract) (enzyme, UniProt P49589 1-748)
chain: MADSSGQQGKGRRVQPQWSPPAGTQPCRLHLYNSLTRNKEVFIPQDGKKVTWYCCGPTVYDASHMGHARSYISFDILRRVLKDYFKFDVFYCMNITDIDDKIIKRARQNHLFEQYREKRPEAAQLLEDVQAALKPFSVKLNETTDPDKKQMLERIQHAVQLATEPLEKAVQSRLTGEEVNSCVEVLLEEAKDLLSDWLDSTLGCDVTDNSIFSKLPKFWEGDFHRDMEALNVLPPDVLTRVSEYVPEIVNFVQKIVDNGYGYVSNGSVYFDTAKFASSEKHSYGKLVPEAVGDQKALQEGEGDLSISADRLSEKRSPNDFALWKASKPGEPSWPCPWGKGRPGWHIECSAMAGTLLGASMDIHGGGFDLRFPHHDNELAQSEAYFENDCWVRYFLHTGHLTIAGCKMSKSLKNFITIKDALKKHSARQLRLAFLMHSWKDTLDYSSNTMESALQYEKFLNEFFLNVKDILRAPVDITGQFEKWGEEEAELNKNFYDKKTAIHKALCDNVDTRTVMEEMRALVSQCNLYMAARKAVRKRPNQALLENIALYLTHMLKIFGAVEEDSSLGFPVGGPGTSLSLEATVMPYLQVLSEFREGVRKIAREQKVPEILQLSDALRDNILPELGVRFEDHEGLPTVVKLVDRNTLLKEREEKRRVEEEKRKKKEEAARRKQEQEAAKLAKMKIPPSEMFLSETDKYSKFDENGLPTHDMEGKELSKGQAKKLKKLFEAQEKLYKEYLQMAQNGSFQ
B4: m7GpppX diphosphatase (HeLa extract) (enzyme, UniProt Q96C86 1-337)
chain: MADAAPQLGKRKRELDVEEAHAASTEEKEAGVGNGTCAPVRLPFSGFRLQKVLRESARDKIIFLHGKVNEASGDGDGEDAVVILEKTPFQVEQVAQLLTGSPELQLQFSNDIYSTYHLFPPRQLNDVKTTVVYPATEKHLQKYLRQDLRLIRETGDDYRNITLPHLESQSLSIQWVYNILDKKAEADRIVFENPDPSDGFVLIPDLKWNQQQLDDLYLIAICHRRGIRSLRDLTPEHLPLLRNILHQGQEAILQRYRMKGDHLRVYLHYLPSYYHLHVHFTALGFEAPGSGVERAHLLAEVIENLECDPRHYQQRTLTFALRADDPLLKLLQEAQQS

What follows are binders tested against mmCRM1 (mouse CRM1), biotinylated version carrying an Avi-tag (mouse) (UniProt Q6P5F9) (assay: affinity purification with mass spectrometry; as a1, with cytosolic HeLa S100 extract on immobilised CRM1 (taken as mmCRM1), with 5 μM RanGTP (hsRanQ69L^5-180); only the target purified).

binding | Binder
binds | B1
binds | B2
no binding | B3
no binding | B4

No constants are given. Whether binding was seen depends on the method and setting. Binding seen in cells or lysates may run through a third protein. A yes stands for co-enrichment or nearness to the bait. Other partners may have been found. No binding means not detected with the bait.
